Measurements: the supplement of paper PMC5949888
Most values lie at the floor of the assay. Slopes are relative: functional sequences can read slightly below zero.

Each substance was assayed on Saccharomyces cerevisiae PS128 hsf1 delta, HSF1(1-493) fusion (assay: growth estimate (transactivation domain function in HSF1 fusion, heat-shock survival) (a.u. (slope of normalised read count over time)); higher = stronger growth at 37°C, i.e. more transactivation activity). Settings: library: random library.

Substance | growth estimate
RELIG | < -0.25
REMIH | < -0.25
REPFRTNIAEGACMPKSCTG | < -0.25
REPVMLLSRSYLDVPARLSS | < -0.25
RERGNV | -0.246
RERHDSVLERQLLLQLPYGV | < -0.25
RERLPNR | < -0.25
RERRGRPGRVQRGEGLNGFT | < -0.25
RESEDPIFSYFLTRFVSKVV | < -0.25
RETDNAQSTVVHYIQG | < -0.25
REVFTTEENSWMDSGVRRDA | < -0.25
REVHNETA | < -0.25
REVLTRPPLLILVVCTHSGD | < -0.25
REVSELDRLVRKYLCFRQIV | < -0.25
REVSTV | < -0.25
REWSQTL | < -0.25
REYEFRQSRRWPRL | < -0.25
REYYTKTWQYRDPAHV | < -0.25
RFCA | < -0.25
RFCATSECSNVAFVA | < -0.25
RFCRWQRRSNSRVHISRAAT | < -0.25
RFCVCLASMVSTSVTLQAVG | < -0.25
RFETAIVSSSTWFWGIVPLS | < -0.25
RFFLRRLRDGEVQRGGLFCG | < -0.25
RFFRLVYIPSVSRLEP | < -0.25

Substance | growth estimate
RFGGTAARSLYRDTLFGNSR | < -0.25
RFHQLRTLSTWDVAQVPSEP | < -0.25
RFIKYFSNVYFDGSNPRQVL | < -0.25
RFILE | < -0.25
RFIVGAARLWVTSFLN | < -0.25
RFKPQTGGDGRGDARGAIGI | < -0.25
RFLCLDSVHLLRVNTEGVTR | < -0.25
RFLFPIFVL | < -0.25
RFLR | < -0.25
RFMR | < -0.25
RFPQSSCRT | < -0.25
RFPVGTGWPCVRKYGELTPS | < -0.25
RFPYVQLSRTPRTGNYFTMR | -0.19
RFREGLDLRNLCRPRLLSRN | < -0.25
RFRESRQE | < -0.25
RFRNIDSVGSRSHVRSGLFD | < -0.25
RFTIRLCRRAWGATRAVPFT | < -0.25
RFTPLEGSKVTSTGRNAIHE | < -0.25
RFTRLYTDI | < -0.25
RFTTASALAGSRDSQRTLSS | < -0.25
RFVEAIR | < -0.25
RFVMLVTPHLGGTGNACWVL | < -0.25
RFWADRTEIK | < -0.25
RFWLDNESASAILVPIKSRH | < -0.25
RFYGEYKLNRG | < -0.25

Substance | growth estimate
RFYTIATTVNEDYGRH | < -0.25
RGALMQGSQSVFRRRVLTRM | < -0.25
RGAPRPA | < -0.25
RGARIGRYMHAGPRAVSRSL | < -0.25
RGC | < -0.25
RGCKKNLAPSSSTHA | < -0.25
RGCLARHVSLCGSSDGAGLL | < -0.25
RGCVVYR | < -0.25
RGEDI | < -0.25
RGEFRRPLVR | < -0.25
RGERRASDVICRYAI | < -0.25
RGERVA | < -0.25
RGFIYVRSRSTSGTLRLGVR | < -0.25
RGFNRGRGRAPVKSSSYLGW | < -0.25
RGFRWDVTTAR | < -0.25
RGFVVVSPGYPRKPPGGPSL | < -0.25
RGFWDPRTRS | < -0.25
RGGDLLQKFVTSRREVSDCD | < -0.25
RGGGPVIRYRNRRKSQLVDL | < -0.25
RGGHIELLVVNLRRRDS | < -0.25
RGGR | < -0.25
RGGTLFDKPLLTGLRPCLGW | < -0.25
RGHCQPSYSVPWQ | < -0.25
RGHQAMGVPIL | < -0.25
RGIGFIKRHSAPKRRRFQCA | < -0.25

Quoted at random: 7 records from the list, in no set order.
Substance | growth estimate
RGHCQPSYSVPWQ | < -0.25
RGGDLLQKFVTSRREVSDCD | < -0.25
RGC | < -0.25
RGFRWDVTTAR | < -0.25
RGFIYVRSRSTSGTLRLGVR | < -0.25
RGGGPVIRYRNRRKSQLVDL | < -0.25
RGFVVVSPGYPRKPPGGPSL | < -0.25

The results go on.

Substance | growth estimate
RGIISCIEKHRHIDRFRFPI | < -0.25
RGKSLSRLSWLGFTVVHGAL | < -0.25
RGKYTDGKPHCWSAAQNTGA | < -0.25
RGLIDGARPEAAFERRVTRG | < -0.25
RGLRE | -0.126
RGMGSQSG | < -0.25
RGMQAGFEFMA | < -0.25
RGMVQHLGGEVGKQVSRRDV | < -0.25
RGNG | < -0.25
RGPA | < -0.25
RGPASVARAIEVDRP | < -0.25
RGPIV | < -0.25
RGPSHNV | < -0.25
RGQTLATSIFFV | < -0.25
RGRCLDISAIRGPHWHEYHA | < -0.25
RGRFAAA | < -0.25
RGRIKTTGIPNMYAYVSLGR | 0.471
RGRLAWCCNSERHK | < -0.25
RGRVEHPYGRA | < -0.25
RGSEESHGSARIAICAFTRR | < -0.25
RGSGGLIVRRIGYASTMSPY | < -0.25
RGSMEKISWTSD | < -0.25
RGSPEQPLL | < -0.25
RGSPGPGFINNAVVVFDDAQ | < -0.25
RGSQIRAR | < -0.25

Substance | growth estimate
RGSSVATGKQSGHWVIVS | < -0.25
RGSTRKPMGIQIINAGVVCV | < -0.25
RGSVGRILPDRVRNQFYPAS | < -0.25
RGTFFRENLLRARVDV | < -0.25
RGTGASYSMLRCEWNGPTQQ | < -0.25
RGTGPNIGFVVL | < -0.25
RGTR | < -0.25
RGTVT | < -0.25
RGV | < -0.25
RGVELTDLSDIRGRGTTAES | < -0.25
RGVIVCFASLGNATSASLGA | < -0.25
RGVKTASCMAF | < -0.25
RGVLKTFITDVKCATLRLPG | < -0.25
RGVLWRRYLDRSSLK | < -0.25
RGVRRTCTFSCDQRRYLFRW | < -0.25
RGVYTTF | < -0.25
RGWGIIRFNGKYFAHGMFIP | < -0.25
RGWSILMDVGAERIRDKSFT | < -0.25
RGWSNP | < -0.25
RGYFFEYSWGSRHVEEPRRV | < -0.25
RGYGTLG | < -0.25
RGYRTLPRA | < -0.25
RGYTELICCSPMGVFSLLVY | < -0.25
RHC | < -0.25
RHCLSLRRSSVHRPLDCSAC | < -0.25

Substance | growth estimate
RHCTASYKYQQSRPRFVGLP | < -0.25
RHEGVQDRISSTGGRF | < -0.25
RHEPLQLNWKKLFYTSQTDK | < -0.25
RHERPKRSGRTFCIHGESRT | < -0.25
RHGDGRM | < -0.25
RHGHVHQAARCSWLRLVRIW | < -0.25
RHGSQRYGWSYHFPRSVDKV | < -0.25
RHHPR | < -0.25
RHKCRLTRACEFDLFLAVLH | < -0.25
RHLPTRRLFSRAS | < -0.25
RHLS | < -0.25
RHPSIGTAMRRMAANSPSGP | < -0.25
RHRAKRGVRWDFGSDLCWST | -0.23
RHRIPIRSSFGCEVTDGSCG | < -0.25
RHRVDFGPIVSIR | < -0.25
RHSEI | < -0.25
RHSTGGFGSLTNAHCGAYS | < -0.25
RHTSERTIALLSFRHVIHQG | < -0.25
RHVDLVPRAVHYHREGHYDR | < -0.25
RHVLVFRDRERSRIMG | < -0.25
RHVVIASLLRLTGILVGV | < -0.25
RHWFNPRKNHSRWCWLKTMP | < -0.25
RHYIDTSLGRSKGGGFGKPY | < -0.25
RIACPRI | < -0.25
RIAEGRNVSLYVAFGS | < -0.25

Some of the entries so far, as comma-separated lines:
Substance,growth estimate
RHPSIGTAMRRMAANSPSGP,< -0.25
RHRAKRGVRWDFGSDLCWST,-0.23
RHRIPIRSSFGCEVTDGSCG,< -0.25
RHRVDFGPIVSIR,< -0.25
RHSEI,< -0.25
RHSTGGFGSLTNAHCGAYS,< -0.25
RHTSERTIALLSFRHVIHQG,< -0.25

Going on with the list:

Substance | growth estimate
RIAHGQAASCRGQA | < -0.25
RIAMCRVFTQGATVFMTSGK | < -0.25
RIARLA | < -0.25
RIASSTREPRPMWAWENFH | < -0.25
RICMLPIW | < -0.25
RIEERF | < -0.25
RIEGPGGLKVGEPLMWFGPP | < -0.25
RIFSAVESIAANADPVHLTP | < -0.25
RIG | < -0.25
RIGF | < -0.25
RIGLELNGRGKLRVFAT | < -0.25
RIGQLIFITIGVAHSRSSGP | < -0.25
RIGRLSN | < -0.25
RIHIVEA | < -0.25
RIIWNLATPLSALPRTHGAL | < -0.25
RIKEVSWVVFESSRSCAAAV | < -0.25
RIKGLRPETRLVAAGCTFSL | < -0.253
RIL | < -0.25
RILSERFPTAGPRYHAS | < -0.25
RILYAGGPSGRLGLEAT | < -0.25
RILYRSYSGLV | < -0.25
RIMFKLRYSMANHQIAALSL | < -0.25
RIN | < -0.25
RIP | < -0.25
RIPDGETLWCRALERRPCKI | < -0.25

Substance | growth estimate
RIPPSSTGFCSDASVSSALY | < -0.25
RIPPVQSIKTLAPSVSRSFD | < -0.25
RIPVSNRGVFTVNACTKPS | < -0.25
RIQ | < -0.25
RIQSYWVGSGTGPCEADTGV | < -0.25
RIQVSPMDYLLPRRA | < -0.25
RIR | < -0.25
RIRERPTV | < -0.25
RIRGALAVGIRPALLKGQRS | < -0.25
RIRHILNQSIENA | < -0.25
RIRIEGRIVLDDLNSSALRY | < -0.25
RIRIFCYLSASLSINLDGKQ | < -0.25
RIRIRQLH | < -0.25
RIRMSPEAAFLAS | < -0.25
RIRRCYLGTLIISLVR | < -0.25
RIRSLAALRNTATWCCTKRI | < -0.25
RIRSVH | < -0.25
RIRYRMITDESRVRLSKVE | < -0.25
RISEALHRGGSHIADGASWA | < -0.25
RISGFEKEGHTQCHEPHGRS | < -0.25
RISRCFIARS | < -0.25
RISTSSWITSLCHQSLKIPQ | < -0.25
RITAHRLC | < -0.25
RIVEGTPGLGVQFWKDRSSH | < -0.25
RIVGETVNPWTWGEMLEKAA | < -0.25
